Counter-ions that a name gives are not always drawn. The list shows a part of the results. The calls rarely recur for the same compound in another form.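 In K562 cells expressing nanoluciferase-fused kinases, luminescence was recorded at 4 h intervals between 2 and 18 h, normalized as percent of control with DMSO at 100% and a positive control at 0%. A significant (2 sigma) signal drop marks a time point as decreased. The authors' rule for a hit is not shown and takes in more than the number of time points.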
Tests used:
Experiment in all cases: kinase-Nluc reporter destabilization hit call (1 = scored as downregulated) (binary); higher = compound decreases kinase abundance
Details in all cases: K562, 2-18 h
AKT1 = AKT1 (UniProt P31749)
ALK = ALK (UniProt Q9UM73)
ARAF = ARAF (UniProt P10398)
AURKA = AURKA (UniProt O14965)
AURKB = AURKB (UniProt Q96GD4)
AURKC = AURKC (UniProt Q9UQB9)
BLK = BLK (UniProt P51451)
BMX = BMX (UniProt P51813)
BRAF = BRAF (UniProt P15056)

Sequences of proteins named here, by UniProt entry; tags and fusion partners are left off. A change or cut given only in a name is not applied to a line headed by its entry.
UniProt P31749: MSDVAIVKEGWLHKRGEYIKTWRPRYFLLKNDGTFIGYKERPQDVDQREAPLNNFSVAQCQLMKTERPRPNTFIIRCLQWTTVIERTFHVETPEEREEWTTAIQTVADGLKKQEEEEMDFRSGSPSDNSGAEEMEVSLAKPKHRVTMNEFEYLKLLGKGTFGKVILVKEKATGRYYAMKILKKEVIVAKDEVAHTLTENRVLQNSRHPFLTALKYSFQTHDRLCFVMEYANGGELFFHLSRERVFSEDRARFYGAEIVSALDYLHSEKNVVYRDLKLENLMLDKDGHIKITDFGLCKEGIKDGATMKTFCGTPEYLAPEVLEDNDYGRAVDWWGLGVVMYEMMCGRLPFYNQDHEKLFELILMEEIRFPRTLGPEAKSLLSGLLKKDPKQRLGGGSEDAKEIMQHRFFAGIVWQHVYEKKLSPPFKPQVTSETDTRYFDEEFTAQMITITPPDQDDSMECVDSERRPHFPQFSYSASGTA
UniProt Q9UM73: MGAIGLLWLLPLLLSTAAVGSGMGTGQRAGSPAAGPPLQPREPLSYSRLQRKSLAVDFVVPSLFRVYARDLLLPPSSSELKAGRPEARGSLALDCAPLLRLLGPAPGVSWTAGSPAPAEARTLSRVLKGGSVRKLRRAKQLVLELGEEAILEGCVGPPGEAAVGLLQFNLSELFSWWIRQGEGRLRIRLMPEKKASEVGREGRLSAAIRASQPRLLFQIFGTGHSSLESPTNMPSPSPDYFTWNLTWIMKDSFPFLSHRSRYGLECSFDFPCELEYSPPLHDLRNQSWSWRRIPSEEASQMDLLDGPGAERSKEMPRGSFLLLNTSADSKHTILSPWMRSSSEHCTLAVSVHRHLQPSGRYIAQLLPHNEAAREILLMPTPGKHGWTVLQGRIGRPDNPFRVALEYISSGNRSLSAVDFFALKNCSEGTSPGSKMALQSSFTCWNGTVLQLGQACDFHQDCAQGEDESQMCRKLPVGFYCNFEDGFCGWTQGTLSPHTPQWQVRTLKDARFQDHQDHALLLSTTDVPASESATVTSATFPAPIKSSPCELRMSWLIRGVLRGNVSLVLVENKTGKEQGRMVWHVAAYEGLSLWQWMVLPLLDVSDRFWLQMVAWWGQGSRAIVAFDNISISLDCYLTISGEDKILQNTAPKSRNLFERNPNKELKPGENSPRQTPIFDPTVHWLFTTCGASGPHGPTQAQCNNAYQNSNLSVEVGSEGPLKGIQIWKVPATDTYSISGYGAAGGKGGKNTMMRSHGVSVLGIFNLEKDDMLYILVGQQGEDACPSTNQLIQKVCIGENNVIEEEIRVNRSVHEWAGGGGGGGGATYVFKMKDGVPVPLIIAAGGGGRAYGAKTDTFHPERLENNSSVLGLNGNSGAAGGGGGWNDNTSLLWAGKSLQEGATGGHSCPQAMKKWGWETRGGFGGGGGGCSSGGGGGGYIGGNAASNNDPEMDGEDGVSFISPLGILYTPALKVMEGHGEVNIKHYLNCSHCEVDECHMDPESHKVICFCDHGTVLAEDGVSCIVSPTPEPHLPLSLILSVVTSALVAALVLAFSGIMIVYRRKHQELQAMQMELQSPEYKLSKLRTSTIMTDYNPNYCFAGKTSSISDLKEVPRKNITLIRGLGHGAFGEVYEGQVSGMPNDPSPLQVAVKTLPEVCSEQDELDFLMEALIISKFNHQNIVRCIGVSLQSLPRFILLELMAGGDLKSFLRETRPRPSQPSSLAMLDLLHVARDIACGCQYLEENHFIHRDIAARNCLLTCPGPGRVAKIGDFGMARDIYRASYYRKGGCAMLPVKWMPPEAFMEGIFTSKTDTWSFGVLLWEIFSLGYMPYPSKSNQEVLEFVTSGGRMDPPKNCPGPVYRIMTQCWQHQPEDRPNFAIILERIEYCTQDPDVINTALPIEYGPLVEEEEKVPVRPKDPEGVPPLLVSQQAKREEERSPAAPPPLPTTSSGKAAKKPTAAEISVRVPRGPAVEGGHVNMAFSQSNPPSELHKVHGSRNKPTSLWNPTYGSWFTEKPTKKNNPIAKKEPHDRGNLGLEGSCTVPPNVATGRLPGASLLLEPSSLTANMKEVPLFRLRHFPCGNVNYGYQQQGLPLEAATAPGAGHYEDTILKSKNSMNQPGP
UniProt P10398: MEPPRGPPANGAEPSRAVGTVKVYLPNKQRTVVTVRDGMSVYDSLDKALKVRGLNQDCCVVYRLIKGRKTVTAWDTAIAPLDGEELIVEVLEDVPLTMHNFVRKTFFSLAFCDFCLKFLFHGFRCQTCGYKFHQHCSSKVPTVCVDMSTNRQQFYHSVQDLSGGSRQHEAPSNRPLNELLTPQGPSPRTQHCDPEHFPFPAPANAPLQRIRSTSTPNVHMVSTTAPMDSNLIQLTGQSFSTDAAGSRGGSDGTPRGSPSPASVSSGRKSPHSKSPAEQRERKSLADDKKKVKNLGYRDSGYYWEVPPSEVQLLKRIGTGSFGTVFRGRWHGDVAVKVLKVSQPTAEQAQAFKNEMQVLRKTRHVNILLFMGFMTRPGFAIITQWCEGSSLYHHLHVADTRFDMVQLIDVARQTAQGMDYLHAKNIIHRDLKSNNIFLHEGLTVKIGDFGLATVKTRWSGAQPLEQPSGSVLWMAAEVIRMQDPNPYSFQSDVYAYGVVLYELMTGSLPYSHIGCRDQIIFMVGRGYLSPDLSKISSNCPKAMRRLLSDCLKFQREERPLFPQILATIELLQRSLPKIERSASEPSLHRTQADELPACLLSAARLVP
UniProt O14965: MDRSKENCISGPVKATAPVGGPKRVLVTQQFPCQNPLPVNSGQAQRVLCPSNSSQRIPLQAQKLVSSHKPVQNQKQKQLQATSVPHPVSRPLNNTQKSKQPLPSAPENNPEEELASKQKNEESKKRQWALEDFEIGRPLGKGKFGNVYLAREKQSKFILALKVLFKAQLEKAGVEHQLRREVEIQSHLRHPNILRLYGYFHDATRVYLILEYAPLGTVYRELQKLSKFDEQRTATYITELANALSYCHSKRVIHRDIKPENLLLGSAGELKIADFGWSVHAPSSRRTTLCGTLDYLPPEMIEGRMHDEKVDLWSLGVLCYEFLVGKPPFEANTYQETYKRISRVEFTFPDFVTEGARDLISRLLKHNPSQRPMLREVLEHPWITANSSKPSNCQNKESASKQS
UniProt Q96GD4, whole entry: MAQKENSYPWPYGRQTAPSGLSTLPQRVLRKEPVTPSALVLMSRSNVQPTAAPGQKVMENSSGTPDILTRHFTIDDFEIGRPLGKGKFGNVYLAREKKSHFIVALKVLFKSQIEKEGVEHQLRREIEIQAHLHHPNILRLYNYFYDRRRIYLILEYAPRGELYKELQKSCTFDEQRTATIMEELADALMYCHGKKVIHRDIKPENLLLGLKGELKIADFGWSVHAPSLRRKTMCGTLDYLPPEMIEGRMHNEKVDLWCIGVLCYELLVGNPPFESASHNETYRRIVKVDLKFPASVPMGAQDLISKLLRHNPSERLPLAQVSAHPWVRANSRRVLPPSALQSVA
UniProt Q9UQB9: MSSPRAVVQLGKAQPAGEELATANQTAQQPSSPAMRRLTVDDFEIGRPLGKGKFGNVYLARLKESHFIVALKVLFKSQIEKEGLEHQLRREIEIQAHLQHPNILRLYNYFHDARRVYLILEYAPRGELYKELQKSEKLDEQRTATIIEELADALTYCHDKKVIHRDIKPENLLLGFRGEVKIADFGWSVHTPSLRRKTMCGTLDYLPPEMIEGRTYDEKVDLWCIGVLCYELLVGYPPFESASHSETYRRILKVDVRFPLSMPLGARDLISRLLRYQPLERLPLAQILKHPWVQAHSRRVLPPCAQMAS
UniProt P51451: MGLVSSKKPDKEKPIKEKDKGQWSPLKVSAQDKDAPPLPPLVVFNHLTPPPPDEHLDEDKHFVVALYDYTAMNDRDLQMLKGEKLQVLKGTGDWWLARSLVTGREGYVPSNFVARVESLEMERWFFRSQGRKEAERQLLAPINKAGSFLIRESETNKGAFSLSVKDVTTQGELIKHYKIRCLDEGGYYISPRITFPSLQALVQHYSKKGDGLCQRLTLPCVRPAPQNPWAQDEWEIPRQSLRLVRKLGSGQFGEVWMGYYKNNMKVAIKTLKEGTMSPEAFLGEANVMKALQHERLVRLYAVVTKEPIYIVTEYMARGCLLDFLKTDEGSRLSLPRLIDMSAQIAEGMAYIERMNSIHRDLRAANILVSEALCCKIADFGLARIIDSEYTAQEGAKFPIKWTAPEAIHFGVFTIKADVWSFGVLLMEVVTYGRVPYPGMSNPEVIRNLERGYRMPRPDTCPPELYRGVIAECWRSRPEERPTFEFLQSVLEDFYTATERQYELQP
UniProt P51813: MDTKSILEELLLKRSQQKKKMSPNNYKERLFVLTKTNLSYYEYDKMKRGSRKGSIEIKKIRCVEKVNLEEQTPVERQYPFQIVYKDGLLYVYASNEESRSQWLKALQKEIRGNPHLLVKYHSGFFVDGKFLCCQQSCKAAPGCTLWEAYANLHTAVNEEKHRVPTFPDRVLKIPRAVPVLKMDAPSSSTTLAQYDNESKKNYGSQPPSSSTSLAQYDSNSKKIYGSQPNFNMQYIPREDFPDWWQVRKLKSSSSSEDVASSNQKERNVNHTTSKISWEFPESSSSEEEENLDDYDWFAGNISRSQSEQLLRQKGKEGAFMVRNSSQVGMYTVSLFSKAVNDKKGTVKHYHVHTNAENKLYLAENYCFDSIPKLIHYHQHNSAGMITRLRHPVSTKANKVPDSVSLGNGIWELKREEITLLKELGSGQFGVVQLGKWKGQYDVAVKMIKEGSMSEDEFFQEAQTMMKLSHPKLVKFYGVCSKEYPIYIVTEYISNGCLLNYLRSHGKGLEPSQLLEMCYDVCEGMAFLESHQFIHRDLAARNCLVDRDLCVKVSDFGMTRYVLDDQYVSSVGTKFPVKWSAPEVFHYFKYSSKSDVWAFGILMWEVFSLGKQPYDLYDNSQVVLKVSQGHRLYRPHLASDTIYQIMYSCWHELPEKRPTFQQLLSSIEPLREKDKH
UniProt P15056, whole entry, looked up: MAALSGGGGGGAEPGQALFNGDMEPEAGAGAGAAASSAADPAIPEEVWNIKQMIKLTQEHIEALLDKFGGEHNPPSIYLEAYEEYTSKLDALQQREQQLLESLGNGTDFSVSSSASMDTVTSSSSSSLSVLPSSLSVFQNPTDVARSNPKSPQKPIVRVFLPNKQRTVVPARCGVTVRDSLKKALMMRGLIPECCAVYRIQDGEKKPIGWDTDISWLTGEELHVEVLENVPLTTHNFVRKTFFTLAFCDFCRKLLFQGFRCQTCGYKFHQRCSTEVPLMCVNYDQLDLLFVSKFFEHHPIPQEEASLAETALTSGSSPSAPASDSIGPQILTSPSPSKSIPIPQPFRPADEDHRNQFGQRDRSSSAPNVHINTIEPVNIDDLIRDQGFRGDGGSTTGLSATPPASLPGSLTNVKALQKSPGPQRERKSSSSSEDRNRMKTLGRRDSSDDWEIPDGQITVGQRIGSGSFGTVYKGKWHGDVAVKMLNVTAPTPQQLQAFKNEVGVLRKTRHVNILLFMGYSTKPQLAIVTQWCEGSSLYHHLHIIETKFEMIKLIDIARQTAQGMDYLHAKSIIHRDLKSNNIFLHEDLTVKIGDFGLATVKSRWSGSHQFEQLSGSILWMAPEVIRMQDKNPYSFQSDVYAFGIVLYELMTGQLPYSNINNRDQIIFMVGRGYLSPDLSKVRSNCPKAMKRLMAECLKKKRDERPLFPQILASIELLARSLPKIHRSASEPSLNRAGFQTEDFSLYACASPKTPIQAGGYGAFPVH

Measured: kinase-Nluc reporter destabilization hit call

CN1CCN(c2ccc3nc(-c4c(N)c5c(F)cccc5[nH]c4=O)[nH]c3c2)CC1 [Dovitinib (lactate)]
inactive: AKT1; 2.5 µM 0 | ALK; 2.5 µM 0 | ARAF; 2.5 µM 0 | AURKA; 2.5 µM 0 | AURKB; 2.5 µM 0 | AURKC; 2.5 µM 0 | BLK; 2.5 µM 0 | BMX; 2.5 µM 0 | BRAF; 2.5 µM 0

O=S(=O)(c1cccc2c(O)nccc12)N1CCCNCC1 [Hydroxyfasudil (hydrochloride)]
inactive: AKT1; 10 µM 0 | ALK; 10 µM 0 | ARAF; 10 µM 0 | AURKA; 10 µM 0 | AURKB; 10 µM 0 | AURKC; 10 µM 0 | BLK; 10 µM 0 | BMX; 10 µM 0

CC(=O)c1c(C)c2cnc(Nc3ccc(N4CCN(C(=O)CCCCCC(=O)N[C@H](C(=O)N5C[C@H](O)C[C@H]5C(=O)NCc5ccc(-c6scnc6C)cc5)C(C)(C)C)CC4)cn3)nc2n(C2CCCC2)c1=O
inactive: ARAF; 2.5 µM 0 | AURKC; 2.5 µM 0 | BMX; 2.5 µM 0 | BRAF; 2.5 µM 0

Cc1nc(Nc2ncc(C(=O)Nc3c(C)cccc3Cl)s2)cc(N2CCN(CCO)CC2)n1 [Dasatinib]
inactive: AKT1; 2.5 µM 0 | ALK; 2.5 µM 0 | ARAF; 2.5 µM 0 | AURKA; 2.5 µM 0 | AURKB; 2.5 µM 0 | BLK; 2.5 µM 0
active: AURKC; 2.5 µM 1

Cc1cc(Nc2cc(N3CCN(C)CC3)nc(/C=C/c3ccccc3)n2)n[nH]1 [ENMD-2076 (Tartrate)]
inactive: AKT1; 2.5 µM 0 | ALK; 2.5 µM 0 | ARAF; 2.5 µM 0 | AURKA; 2.5 µM 0 | AURKB; 2.5 µM 0 | AURKC; 2.5 µM 0 | BLK; 2.5 µM 0 | BMX; 2.5 µM 0 | BRAF; 2.5 µM 0

COc1ccc(-c2c[nH]c3nccc(-c4ccsc4)c23)c(OC)c1
inactive: AKT1; 10 µM 0 | ALK; 10 µM 0 | ARAF; 10 µM 0 | AURKA; 10 µM 0 | AURKB; 10 µM 0 | AURKC; 10 µM 0 | BLK; 10 µM 0 | BMX; 10 µM 0 | BRAF; 10 µM 0

Cc1ccc(-n2nc(C(C)(C)C)cc2NC(=O)Nc2ccc(OCCN3CCOCC3)c3ccccc23)cc1 [Doramapimod]
inactive: AKT1; 10 µM 0 | ALK; 10 µM 0 | ARAF; 10 µM 0 | AURKA; 10 µM 0 | AURKB; 10 µM 0 | AURKC; 10 µM 0 | BLK; 10 µM 0 | BMX; 10 µM 0

Reprinted from the listing (2 entries):
CN1CCN(c2ccc3nc(-c4c(N)c5c(F)cccc5[nH]c4=O)[nH]c3c2)CC1 [Dovitinib (lactate)]
inactive: AKT1; 2.5 µM 0 | ALK; 2.5 µM 0 | ARAF; 2.5 µM 0 | AURKA; 2.5 µM 0 | AURKB; 2.5 µM 0 | AURKC; 2.5 µM 0 | BLK; 2.5 µM 0 | BMX; 2.5 µM 0 | BRAF; 2.5 µM 0

O=S(=O)(c1cccc2c(O)nccc12)N1CCCNCC1 [Hydroxyfasudil (hydrochloride)]
inactive: AKT1; 10 µM 0 | ALK; 10 µM 0 | ARAF; 10 µM 0 | AURKA; 10 µM 0 | AURKB; 10 µM 0 | AURKC; 10 µM 0 | BLK; 10 µM 0 | BMX; 10 µM 0

Continuation.

CC(C)(C)n1nc(-c2ccc(Cl)cc2)c2c(N)ncnc21
inactive: AKT1; 10 µM 0 | ALK; 10 µM 0 | ARAF; 10 µM 0 | AURKA; 10 µM 0 | AURKB; 10 µM 0 | AURKC; 10 µM 0 | BLK; 10 µM 0 | BMX; 10 µM 0 | BRAF; 10 µM 0

Cc1cnc(Nc2ccc(OCCN3CCCC3)cc2)nc1Nc1cccc(S(=O)(=O)NC(C)(C)C)c1 [Fedratinib]
inactive: AKT1; 2.5 µM 0 | ALK; 2.5 µM 0 | ARAF; 2.5 µM 0 | AURKA; 2.5 µM 0 | AURKB; 2.5 µM 0 | AURKC; 2.5 µM 0 | BLK; 2.5 µM 0 | BRAF; 2.5 µM 0

Cc1cc2ncnn2cc1Nc1ncc2c(n1)n(C1CCOCC1)c(=O)n2C
inactive: ARAF; 10 µM 0 | AURKC; 10 µM 0 | BMX; 10 µM 0 | BRAF; 10 µM 0

Cc1[nH]c(/C=C2\C(=O)Nc3ccc(F)cc32)c(C)c1C(=O)NC[C@H](O)CN1CCOCC1
inactive: AKT1; 2.5 µM 0 | ALK; 2.5 µM 0 | ARAF; 2.5 µM 0 | AURKA; 2.5 µM 0 | AURKC; 2.5 µM 0 | BLK; 2.5 µM 0 | BMX; 2.5 µM 0 | BRAF; 2.5 µM 0

CC1(C)CNc2cc(NC(=O)c3cccnc3NCc3ccncc3)ccc21 [Motesanib]
inactive: AKT1; 2.5 µM 0 | ALK; 2.5 µM 0 | ARAF; 2.5 µM 0 | AURKA; 2.5 µM 0 | AURKB; 2.5 µM 0 | AURKC; 2.5 µM 0 | BLK; 2.5 µM 0 | BMX; 2.5 µM 0

C=CC(=O)Nc1cc2c(Nc3ccc(F)c(Cl)c3)ncnc2cc1OCCCN1CCOCC1 [Canertinib]
inactive: AKT1; 10 µM 0 | ALK; 10 µM 0 | ARAF; 10 µM 0 | AURKA; 10 µM 0 | AURKB; 10 µM 0 | AURKC; 10 µM 0 | BLK; 10 µM 0 | BRAF; 10 µM 0
